Measured values taken from patent publication US20140038203A1, “METHODS FOR DETECTING OR PREDICTING KIDNEY DISEASE” (MUSC FOUNDATION FOR RESEARCH DEVELOPMENT, priority 2012, published 2014).

B1: Mannan-binding lectin serine protease 2 (protein, UniProt O00187 16-686, looked up)
Mannan-binding lectin serine …: TPLGPKWPEPVFGRLASPGFPGEYANDQERRWTLTAPPGYRLRLYFTHFDLELSHLCEYDFVKLSSGAKVLATLCGQESTDTERAPGKDTFYSLGSSLDITFRSDYSNEKPFTGFEAFYAAEDIDECQVAPGEAPTCDHHCHNHLGGFYCSCRAGYVLHRNKRTCSALCSGQVFTQRSGELSSPEYPRPYPKLSSCTYSISLEEGFSVILDFVESFDVETHPETLCPYDFLKIQTDREEHGPFCGKTLPHRIETKSNTVTITFVTDESGDHTGWKIHYTSTAQPCPYPMAPPNGHVSPVQAKYILKDSFSIFCETGYELLQGHLPLKSFTAVCQKDGSWDRPMPACSIVDCGPPDDLPSGRVEYITGPGVTTYKAVIQYSCEETFYTMKVNDGKYVCEADGFWTSSKGEKSLPVCEPVCGLSARTTGGRIYGGQKAKPGDFPWQVLILGGTTAAGALLYDNWVLTAAHAVYEQKHDASALDIRMGTLKRLSPHYTQAWSEAVFIHEGYTHDAGFDNDIALIKLNNKVVINSNITPICLPRKEAESFMRTDDIGTASGWGLTQRGFLARNLMYVDIPIVDHQKCTAAYEKPPYPRGSVTANMLCAGLESGGKDSCRGDSGGALVFLDSETERWFVGGIVSWGSMNCGEAGQYGVYTKVINYIPWIENIISDF
B2: Keratin, type II cytoskeletal 2 epidermal (protein, UniProt P35908 1-639, looked up)
Keratin, type II cytoskeletal …: MSCQISCKSRGRGGGGGGFRGFSSGSAVVSGGSRRSTSSFSCLSRHGGGGGGFGGGGFGSRSLVGLGGTKSISISVAGGGGGFGAAGGFGGRGGGFGGGSSFGGGSGFSGGGFGGGGFGGGRFGGFGGPGGVGGLGGPGGFGPGGYPGGIHEVSVNQSLLQPLNVKVDPEIQNVKAQEREQIKTLNNKFASFIDKVRFLEQQNQVLQTKWELLQQMNVGTRPINLEPIFQGYIDSLKRYLDGLTAERTSQNSELNNMQDLVEDYKKKYEDEINKRTAAENDFVTLKKDVDNAYMIKVELQSKVDLLNQEIEFLKVLYDAEISQIHQSVTDTNVILSMDNSRNLDLDSIIAEVKAQYEEIAQRSKEEAEALYHSKYEELQVTVGRHGDSLKEIKIEISELNRVIQRLQGEIAHVKKQCKNVQDAIADAEQRGEHALKDARNKLNDLEEALQQAKEDLARLLRDYQELMNVKLALDVEIATYRKLLEGEECRMSGDLSSNVTVSVTSSTISSNVASKAAFGGSGGRGSSSGGGYSSGSSSYGSGGRQSGSRGGSGGGGSISGGGYGSGGGSGGRYGSGGGSKGGSISGGGYGSGGGKHSSGGGSRGGSSSGGGYGSGGGGSSSVKGSSGEAFGSSVTFSFR
B3: Aminopeptidase N (protein, UniProt P15144 2-967, looked up)
Aminopeptidase N: AKGFYISKSLGILGILLGVAAVCTIIALSVVYSQEKNKNANSSPVASTTPSASATTNPASATTLDQSKAWNRYRLPNTLKPDSYRVTLRPYLTPNDRGLYVFKGSSTVRFTCKEATDVIIIHSKKLNYTLSQGHRVVLRGVGGSQPPDIDKTELVEPTEYLVVHLKGSLVKDSQYEMDSEFEGELADDLAGFYRSEYMEGNVRKVVATTQMQAADARKSFPCFDEPAMKAEFNITLIHPKDLTALSNMLPKGPSTPLPEDPNWNVTEFHTTPKMSTYLLAFIVSEFDYVEKQASNGVLIRIWARPSAIAAGHGDYALNVTGPILNFFAGHYDTPYPLPKSDQIGLPDFNAGAMENWGLVTYRENSLLFDPLSSSSSNKERVVTVIAHELAHQWFGNLVTIEWWNDLWLNEGFASYVEYLGADYAEPTWNLKDLMVLNDVYRVMAVDALASSHPLSTPASEINTPAQISELFDAISYSKGASVLRMLSSFLSEDVFKQGLASYLHTFAYQNTIYLNLWDHLQEAVNNRSIQLPTTVRDIMNRWTLQMGFPVITVDTSTGTLSQEHFLLDPDSNVTRPSEFNYVWIVPITSIRDGRQQQDYWLIDVRAQNDLFSTSGNEWVLLNLNVTGYYRVNYDEENWRKIQTQLQRDHSAIPVINRAQIINDAFNLASAHKVPVTLALNNTLFLIEERQYMPWEAALSSLSYFKLMFDRSEVYGPMKNYLKKQVTPLFIHFRNNTNNWREIPENLMDQYSEVNAISTACSNGVPECEEMVSGLFKQWMENPNNNPIHPNLRSTVYCNAIAQGGEEEWDFAWEQFRNATLVNEADKLRAALACSKELWILNRYLSYTLNPDLIRKQDATSTIISITNNVIGQGLVWDFVQSNWKKLFNDYGGGSFSFSNLIQAVTRRFSTEYELQQLEQFKKDNEETGFGSGTRALEQALEKTKANIKWVKENKEVVLQWFTENSK
B4: Src substrate cortactin (protein, UniProt Q14247 1-550, looked up)
Src substrate cortactin: MWKASAGHAVSIAQDDAGADDWETDPDFVNDVSEKEQRWGAKTVQGSGHQEHINIHKLRENVFQEHQTLKEKELETGPKASHGYGGKFGVEQDRMDKSAVGHEYQSKLSKHCSQVDSVRGFGGKFGVQMDRVDQSAVGFEYQGKTEKHASQKDYSSGFGGKYGVQADRVDKSAVGFDYQGKTEKHESQRDYSKGFGGKYGIDKDKVDKSAVGFEYQGKTEKHESQKDYVKGFGGKFGVQTDRQDKCALGWDHQEKLQLHESQKDYKTGFGGKFGVQSERQDSAAVGFDYKEKLAKHESQQDYSKGFGGKYGVQKDRMDKNASTFEDVTQVSSAYQKTVPVEAVTSKTSNIRANFENLAKEKEQEDRRKAEAERAQRMAKERQEQEEARRKLEEQARAKTQTPPVSPAPQPTEERLPSSPVYEDAASFKAELSYRGPVSGTEPEPVYSMEAADYREASSQQGLAYATEAVYESAEAPGHYPAEDSTYDEYENDLGITAVALYDYQAAGDDEISFDPDDIITNIEMIDDGWWRGVCKGRYGLFPANYVELRQ
B5: Biotinidase (protein, UniProt P43251 42-543, looked up)
Biotinidase: AHTGEESVADHHEAEYYVAAVYEHPSILSLNPLALISRQEALELMNQNLDIYEQQVMTAAQKDVQIIVFPEDGIHGFNFTRTSIYPFLDFMPSPQVVRWNPCLEPHRFNDTEVLQRLSCMAIRGDMFLVANLGTKEPCHSSDPRCPKDGRYQFNTNVVFSNNGTLVDRYRKHNLYFEAAFDVPLKVDLITFDTPFAGRFGIFTCFDILFFDPAIRVLRDYKVKHVVYPTAWMNQLPLLAAIEIQKAFAVAFGINVLAANVHHPVLGMTGSGIHTPLESFWYHDMENPKSHLIIAQVAKNPVGLIGAENATGETDPSHSKFLKILSGDPYCEKDAQEVHCDEATKWNVNAPPTFHSEMMYDNFTLVPVWGKEGYLHVCSNGLCCYLLYERPTLSKELYALGVFDGLHTVHGTYYIQVCALVRCGGLGFDTCGQEITEATGIFEFHLWGNFSTSYIFPLFLTSGMTLEVPDQLGWENDHYFLRKSRLSSGLVTAALYGRLYERD
B6: Growth/differentiation factor 15 (protein, UniProt Q99988 195-308, looked up)
Growth/differentiation factor …: ARARNGDHCPLGPGRCCRLHTVRASLEDLGWADWVLSPREVQVTMCIGACPSQFRAANMHAQIKTSLHRLKPDTVPAPCCVPASYNPMVLIQKTDTGVSLQTYDDLLAKDCHCI
B7: Trefoil factor 2 (protein, UniProt Q03403 24-129, looked up)
Trefoil factor 2: EKPSPCQCSRLSPHNRTNCGFPGITSDQCFDNGCCFDSSVTGVPWCFHPLPKQESDQCVMEVSDRRNCGYPGISPEECASRKCCFSNFIFEVPWCFFPKSVEDCHY
B8: Phosphoinositide-3-kinase-interacting protein 1 (protein, UniProt Q96FE7 22-263, looked up)
Phosphoinositide-3-kinase-inte …: SGGCFWDNGHLYREDQTSPAPGLRCLNWLDAQSGLASAPVSGAGNHSYCRNPDEDPRGPWCYVSGEAGVPEKRPCEDLRCPETTSQALPAFTTEIQEASEGPGADEVQVFAPANALPARSEAAAVQPVIGISQRVRMNSKEKKDLGTLGYVLGITMMVIIIAIGAGIILGYSYKRGKDLKEQHDQKVCEREMQRITLPLSAFTNPTCEIVDEKTVVVHTSQTPVDPQEGTTPLMGQAGTPGA
B9: Pro-epidermal growth factor (protein, UniProt P01133 23-1207, looked up)
pro-form: PQHWSCPEGTLAGNGNSTCVGPAPFLIFSHGNSIFRIDTEGTNYEQLVVDAGVSVIMDFHYNEKRIYWVDLERQLLQRVFLNGSRQERVCNIEKNVSGMAINWINEEVIWSNQQEGIITVTDMKGNNSHILLSALKYPANVAVDPVERFIFWSSEVAGSLYRADLDGVGVKALLETSEKITAVSLDVLDKRLFWIQYNREGSNSLICSCDYDGGSVHISKHPTQHNLFAMSLFGDRIFYSTWKMKTIWIANKHTGKDMVRINLHSSFVPLGELKVVHPLAQPKAEDDTWEPEQKLCKLRKGNCSSTVCGQDLQSHLCMCAEGYALSRDRKYCEDVNECAFWNHGCTLGCKNTPGSYYCTCPVGFVLLPDGKRCHQLVSCPRNVSECSHDCVLTSEGPLCFCPEGSVLERDGKTCSGCSSPDNGGCSQLCVPLSPVSWECDCFPGYDLQLDEKSCAASGPQPFLLFANSQDIRHMHFDGTDYGTLLSQQMGMVYALDHDPVENKIYFAHTALKWIERANMDGSQRERLIEEGVDVPEGLAVDWIGRRFYWTDRGKSLIGRSDLNGKRSKIITKENISQPRGIAVHPMAKRLFWTDTGINPRIESSSLQGLGRLVIASSDLIWPSGITIDFLTDKLYWCDAKQSVIEMANLDGSKRRRLTQNDVGHPFAVAVFEDYVWFSDWAMPSVMRVNKRTGKDRVRLQGSMLKPSSLVVVHPLAKPGADPCLYQNGGCEHICKKRLGTAWCSCREGFMKASDGKTCLALDGHQLLAGGEVDLKNQVTPLDILSKTRVSEDNITESQHMLVAEIMVSDQDDCAPVGCSMYARCISEGEDATCQCLKGFAGDGKLCSDIDECEMGVPVCPPASSKCINTEGGYVCRCSEGYQGDGIHCLDIDECQLGEHSCGENASCTNTEGGYTCMCAGRLSEPGLICPDSTPPPHLREDDHHYSVRNSDSECPLSHDGYCLHDGVCMYIEALDKYACNCVVGYIGERCQYRDLKWWELRHAGHGQQQKVIVVAVCVVVLVMLLLLSLWGAHYYRTQKLLSKNPKNPYEESSRDVRSRRPADTEDGMSSCPQPWFVVIKEHQDLKNGGQPVAGEDGQAADGSMQPTSWRQEPQLCGMGTEQGCWIPVSSDKGSCPQVMERSFHMPSYGTQTLEGGVEKPHSLLSANPLWQQRALDPPHQMELTQ
modifications: pro-form

Test: RRT study: LC-MS/MS urinary proteomics, AKI after cardiac surgery, RRT vs No RRT
Set-up: species or system human
Conditions: patients who did vs did not require RRT/dialysis; for Up or Down: direction of differential abundance

Molecule	Up or Down	Mean Fold Change
B1	Down	1.112
B2	Down	2.673
B3	Down	1.743
B4	Down	5.782
B5	Down	1.389
B6	Down	1.011
B7	Down	1.741
B8	Down	1.041
B9	Down	1.18
